Test results: PubChem BioAssay AID743266 (National Center for Advancing Translational Sciences (NCATS), 2014)
About 310 (0.076%) of roughly 410,000 compounds were called active. The inconclusive results got no clear call from the source; some entries with a clear call stand among them for comparison. Calls come from the whole dose curve; as a rule, active = well fitted activation curve with a large enough effect; inconclusive = small, poorly fitted or top-dose-only effect, or another doubt; inactive = no such curve, though single readings can be large or run the other way. Potencies of inconclusive entries are doubtful fits and often do not repeat.

By UniProt entry, the sequences of proteins in these tests, tags left out. Where a name states a change or a piece, a line headed by the entry shows the natural chain unless it says otherwise.
UniProt Q03431: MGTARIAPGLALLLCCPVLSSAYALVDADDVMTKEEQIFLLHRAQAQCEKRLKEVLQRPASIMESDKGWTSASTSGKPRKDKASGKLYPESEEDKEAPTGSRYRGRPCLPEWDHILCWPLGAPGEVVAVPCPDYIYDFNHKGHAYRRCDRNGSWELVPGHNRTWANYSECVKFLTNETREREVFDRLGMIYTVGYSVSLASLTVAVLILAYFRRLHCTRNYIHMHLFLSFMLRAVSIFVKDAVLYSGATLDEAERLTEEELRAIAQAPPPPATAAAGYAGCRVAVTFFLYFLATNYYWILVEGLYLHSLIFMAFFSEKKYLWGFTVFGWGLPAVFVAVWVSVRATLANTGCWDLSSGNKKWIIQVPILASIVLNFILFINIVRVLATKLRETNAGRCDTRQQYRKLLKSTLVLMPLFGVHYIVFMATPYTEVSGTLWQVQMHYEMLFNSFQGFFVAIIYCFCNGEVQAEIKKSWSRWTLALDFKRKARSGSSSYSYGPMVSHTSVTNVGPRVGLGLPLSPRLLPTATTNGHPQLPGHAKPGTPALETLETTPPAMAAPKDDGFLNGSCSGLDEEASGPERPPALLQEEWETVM

Target: Parathyroid hormone/parathyroid hormone-related peptide receptor (Homo sapiens) (UniProt Q03431)
Assay: qHTS for PTHR1 Agonists: Primary Screen; note: nearly all actives have a fitted effect of over 55% in size
Conditions: HEK293 GP2 PTHR1 cells, GloSensor cAMP luminescence, 1 h; activation: at 115 µM (top of the series) unless noted; series mostly up to 115 µM
Summary of the method: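 HEK-293-derived GP2 cells expressing PTHR1 and a GloSensor cAMP reporter, 3,000/well, plated overnight, given luciferin plus IBMX (each 0.5 mM as added) for 1 h at 37 °C, then compound for 1 h at 37 °C. Luminescence was read after 15 min at room temperature.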
Potency is the fitted concentration of half-maximal effect.

Potency, inactive:
COc1cccc(Cn2c(=O)n(Cc3ccccc3)c(=O)c3c2c2cc(OC)ccc2n3C)c1
Cc1c(C(=O)NCc2cccc(C(F)(F)F)c2)sc(=O)n1Cc1ccccc1F
Cc1ccc(S(=O)(=O)N2CCN(C(=O)c3ccco3)CC2)cc1
CC1(C(=O)NS(=O)(=O)c2ccc(Cl)cc2)CCN1C(=O)C1CC1 (stereo not given)
Cc1ccccc1-c1cc2c(c3c1ccn3C)C1CCC2O1 (stereo not given)
Cc1ccc([C@H]2C(C(=O)O)=CC[C@@H](c3ccc(C(C)C)cc3)N2S(=O)(=O)c2ccc(C)cc2)cc1
CCOc1ccc2nc(N3CCCC(C(=O)Nc4cc(Cl)c(OC)cc4OC)C3)sc2c1 (stereo not given)
O=C(CNS(=O)(=O)c1ccc2ccccc2c1)OCc1csc(-c2ccccc2)n1
COCCNC(=O)c1ccc(Cn2c(=S)[nH]c3cc4c(cc3c2=O)OCO4)cc1
CC1(C)CC(=O)C(N=Nc2cc(Cl)c(Cl)c(Cl)c2)=C(O)C1
Cc1ccc(S(=O)(=O)N(CC(=O)NCCc2ccc(Cl)cc2)c2ccccc2C)cc1
O=C(CSc1n[nH]c(=O)n1C1CC1)Nc1ccc(F)c(Cl)c1
COc1ccc(Br)cc1CN1CCCCCCC1
C#CCOCCOCCOCCNc1nc(N2CCN(C(=O)CCCCCCCCCCNC(=O)Cn3cc(CCCCCN)nn3)CC2)nc(N2CCN(C(=O)CCCCCCCCCCNC(=O)[C@H]([C@@H](C)CC)n3cc(CCCCN=C(N)N)nn3)CC2)n1
CCn1c(CN2CCN(Cc3ccc(C)cc3)C(CCO)C2)nc2ccccc21 (stereo not given)
COCCCN(C(=O)CC1OC(=O)c2ccccc21)c1c(N)n(Cc2ccccc2)c(=O)[nH]c1=O (stereo not given)
CCNCc1cc(OCC)c(OCC(=O)NCCc2ccccc2)cc1Cl

Potency, inconclusive:
CCCCOc1ccc(N(CC(=O)NCCOC)C(=O)CCC(=O)Nc2ccccn2)cc1 112 µM [activator, single point]
O=C(CNC(=O)c1ccccc1F)NNC(=O)c1ccccc1O 31.6 µM [activator, partial curve, poor fit]
COc1ccc(CC(=O)OCC(=O)NNC(=O)c2ccccc2)cc1 1.41 µM [activator, full curve, poor fit]
CCc1ccccc1N=Cc1c(C)c(C#N)c2[nH]c3ccccc3n2c1=O 141 µM [activator, single point]
O=C(Cc1ccccc1)Nc1ccc(NC(=O)C2CC2)nc1 6.31 µM [activator, partial curve]
CCn1cc(C(=O)N(C)c2ccc(C(C)C)cc2)c2cc(OC)c(OC)cc2c1=O 126 µM [activator, single point]
Cc1ccc2nc(NC(=O)CSc3ncc(C(=O)Nc4ccc(F)cc4)c(=O)n3C)sc2c1 141 µM [activator, single point]
O=S(=O)(c1ccc(Cl)cc1)N1CCC(N2CCOCC2)CC1 39.8 µM [activator, single point]
CCNc1ccc(C(=O)OCC(=O)NCCN2C(=O)CSC2=O)cc1[N+](=O)[O-] 79.4 µM [activator, partial curve, poor fit]
COC(=O)c1ccc(Oc2nc(Nc3ccc(F)cc3)nc(N3CCCC3)n2)cc1 2.51 µM [activator, single point]
NC(=O)C1(N2CCCCC2)CCN(C(=O)Nc2ccc(F)cc2F)CC1 56.2 µM [activator, partial curve, poor fit]
COc1ccc(Cl)cc1-n1c(=S)sc2c(=O)n(-c3ccc(F)cc3)c(SCC(=O)O)nc21 126 µM [activator, single point]
Cc1cccc(NS(=O)(=O)c2c(C(=O)N3CCCC3)c(C)n(C)c2C)c1 112 µM [activator, partial curve, poor fit]
CC1(C)SC2C(NC(=O)C3(N)CCCCC3)C(=O)N2C1C(=O)O (stereo not given) 50.1 µM [activator, partial curve, poor fit]
COCCCNC(=O)c1ccc(-n2c(-c3ccccc3)cc3c2CCC(C)C3)cc1 (stereo not given) 79.4 µM [activator, partial curve, poor fit]
Cn1ncc(Cl)c1C(=O)Nc1cc(C(F)(F)F)ccc1F 3.98 µM [activator, partial curve]
COc1ccc(C2C(C(=O)Nc3cc(OC)c(OC)c(OC)c3)c3ccccc3C(=O)N2C)cc1OC (stereo not given) 56.2 µM [activator, partial curve, poor fit]
NS(=O)(=O)c1ccc(CCNC(=O)c2ccccc2F)cc1 50.1 µM [activator, single point]
COc1ccc(C(=O)/C=C/Nc2ccc(S(N)(=O)=O)cc2)cc1OC 126 µM [activator, single point]
O=C(O)c1ccc(NS(=O)(=O)c2ccc3c(c2)C(=O)c2ccccc2C3=O)cc1 22.4 µM [activator, single point]
Cc1ccc(C(=O)N2CCCC(N(C)Cc3ccccc3)C2)s1 (stereo not given) 100 µM [activator, partial curve, poor fit]
CNc1nc(Sc2ccccc2)cc(C(F)(F)F)n1 39.8 µM [activator, single point]
FC(F)(F)c1cc(C(F)(F)F)c2ccc(N/N=C/c3ccccc3)nc2n1 31.6 µM [activator, single point]
COc1ccc(C2c3[nH]c4ccccc4c3CCN2CCCn2cccn2)cc1C (stereo not given) 50.1 µM [activator, single point]
OC(COC(c1ccc(Cl)cc1)c1ccc(Cl)cc1)CN1CCCC1 (stereo not given) 11.2 µM [activator, partial curve, poor fit]
CCOc1ccc(C(=O)Nc2c(C(=O)N3CCC(N4CCCCC4)CC3)oc3ccccc23)cc1 50.1 µM [activator, partial curve, poor fit]
COc1cccc(C(=O)NCC(=O)OCc2cc(=O)n3nc(C)sc3n2)c1 89.1 µM [activator, partial curve, poor fit]
Cc1cc(Cl)ccc1OC(C)C(=O)Nc1cnn(CCCC(=O)O)c1 (stereo not given) 141 µM [activator, single point]
Cc1cc(N(C)C)cc(C)[n+]1[O-] 35.5 µM [activator, single point]
O=S(=O)(NCc1cccs1)c1cccc(S(=O)(=O)N2CCCCC2)c1 1.41 µM [activator, partial curve, poor fit]
CCCNC(=O)CSc1nc(-c2cccs2)cc(C(F)(F)F)n1 14.1 µM [activator, partial curve, poor fit]
O=C(NCc1ccc(Cl)cc1)C1CCCN1C(=O)Nc1ccc(F)cc1 (stereo not given) 44.7 µM [activator, partial curve, poor fit]
CC1(C)N=C(/C=N/O)C=[N+]1[O-] 35.5 µM [activator, single point]
COCCNC(=O)CCC(=O)N1Cc2cccc(OC)c2Oc2ncccc21 141 µM [activator, single point]
COc1ccccc1N(C)S(=O)(=O)c1ccc(C(=O)N2CCC(C(N)=O)CC2)cc1 6.31 µM [activator, partial curve, poor fit]
COC(=O)CSc1nnc(-c2ccoc2C)n1-c1ccc(OC)cc1 44.7 µM [activator, single point]
Cc1cc(C)nc(SCc2ccc(C(=O)NN=C3CCCC3)cc2)n1 50.1 µM [activator, partial curve, poor fit]
COc1ccc(O)c(C(=O)c2cc(C#N)c(=O)n(-c3ccc(Cl)cc3)c2)c1 126 µM [activator, single point]
CCCCN(C=O)c1c(CC)nc2c(OCC(=O)N3CCOCC3)cccn12 0.767 µM [activator, full curve, poor fit]
O=C(CSc1nc(O)cc(=O)n1-c1ccccc1)Nc1ccc(Br)cn1 79.4 µM [activator, partial curve, poor fit]

Sorted by number of heavy atoms (rising): some entries from above
Potency, inconclusive:
Cc1ccc(C(=O)N2CCCC(N(C)Cc3ccccc3)C2)s1 (stereo not given) 100 µM [activator, partial curve, poor fit]
O=C(CNC(=O)c1ccccc1F)NNC(=O)c1ccccc1O 31.6 µM [activator, partial curve, poor fit]
O=C(CSc1nc(O)cc(=O)n1-c1ccccc1)Nc1ccc(Br)cn1 79.4 µM [activator, partial curve, poor fit]

Following part:

activation, inconclusive:
Cn1c(=O)c2c(nc(SCC(=O)NCc3ccc4c(c3)OCO4)n2Cc2ccccc2)n(C)c1=O -64.2% [activator] [at 57.5 µM]
Nc1ccc(S(=O)(=O)O)cn1 36.6% [activator]
CSc1nc2ccc(NC(=O)C3CCCO3)cc2s1 (stereo not given) -54.5% [activator] [at 57.5 µM]
CCOC(=O)C1CCN(CCC(=O)Nc2ccccc2)CC1 -61.2% [activator] [at 57.5 µM]
CN(C)c1ccc(NC(=O)COC(=O)CCC(=O)c2ccc(F)cc2)cc1 33.8% [activator] [at 57.5 µM]
Nc1c(C(=O)NCc2ccc3c(c2)OCO3)c2nc3ccccc3nc2n1CCCN1CCOCC1 133% [activator] [at 57.5 µM]
O=C1CSC(=S)N1c1cccc(Cl)c1 -49.7% [activator]
O=CN1Cc2[nH]c3ccccc3c2N(c2ccc(Cl)cc2)C1=O 6.37% [activator]
